PubChem BioAssay AID1259331 – Drosophila RNAi Screening Center – 2017

Purpose: 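Genes whose knock-down changes cell survival under toxic zinc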 (primary screen)
System: Drosophila S2R+ cells
Reagent: long dsRNA against Drosophila genes
Timing: 5 days (4 days knock-down, then 1 day zinc)
Treatment: zinc chloride at 15 mM final level for 1 day
Read-out: 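Luminescent ATP assay standing in for viability; Z score is the mean over three replicate plates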
Reading the numbers: mean Z score: higher = more ATP than other wells, better survival under zinc; ATP luminescence: higher = more ATP, more viable cells
Active means: 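a reagent is called a hit when its Z score is above 1.5 or below -1.5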
Calls: active = hit, ATP up or down; inactive = not a hit
The deposit covers about 3,100 reagents; this is an unselected part. 126 of them (4.1%) were called active. 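Calls are per reagent; zinc was so toxic that few knock-downs lowered ATP further, so most hits raise ATP.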 Raw values vary from plate to plate and are shown uncorrected. Unmarked entries are inactive. No sequences are given here. Not stated in the record: the amount of reagent.

| predicted target | dsRNA | mean Z score | ATP luminescence, replicate 1 | ATP luminescence, replicate 2 |
| --- | --- | --- | --- | --- |
| Oatp30B (Organic anion transporting polypeptide 30B) | DRSC02727 | -0.0338 | 55110 | 56413 |
| Oatp30B (Organic anion transporting polypeptide 30B) | DRSC39872 | -0.646 | 46055 | 49435 |
| Or63a (Odorant receptor 63a) | DRSC08681 | 0.101 | 71145 | 76496 |
| rk (rickets) | DRSC03602 | 0.351 | 55076 | 40468 |
| Gr77a (Gustatory receptor 77a) | DRSC11446 | -0.551 | 52264 | 61660 |
| Gr77a (Gustatory receptor 77a) | DRSC26808 | -0.163 | 58454 | 50241 |
| Tsp47F (Tetraspanin 47F) | DRSC07325 | 7.72 (active) | 2.12e5 | 2.18e5 |
| CG4576 | DRSC15604 | -0.527 | 33679 | 51029 |
| CG4576 | DRSC26364 | -0.101 | 54126 | 50035 |
| CG13995 | DRSC22767 | 0.684 | 55684 | 58386 |
| CG13995 | DRSC28023 | 1.48 | 83734 | 77782 |
| sing (singles bar) | DRSC19530 | 0.142 | 46177 | 45028 |
| sing (singles bar) | DRSC39652 | -0.328 | 58797 | 54339 |
| Vha16-1 (Vacuolar H[+] ATPase 16kD subunit 1) | DRSC05020 | 1.7 (active) | 1.08e5 | 1.05e5 |
| Ctl2 (Choline transporter-like 2) | DRSC29712 | 2.11 (active) | 70956 | 1.17e5 |
| otk2 (off-track2) | DRSC07303 | -0.0569 | 74283 | 74078 |
| l(2)03659 (lethal (2) 03659) | DRSC07269 | -0.54 | 83237 | 61901 |
| l(2)03659 (lethal (2) 03659) | DRSC07638 | 0.0348 | 41119 | 44891 |
| mah (mahogany) | DRSC14645 | -0.468 | 36867 | 51629 |
| mah (mahogany) | DRSC28300 | -0.11 | 58540 | 60872 |
| CG9826 | DRSC04570 | 1.36 | 65297 | 44357 |
| alpha-Cat (alpha Catenin) | DRSC39510 | -0.108 | 49328 | 44617 |
| CG16727 | DRSC15139 | 0.239 | 39199 | 63856 |
| CG16727 | DRSC26820 | -0.43 | 57065 | 57682 |
| CG5250 | DRSC15752 | -0.271 | 35719 | 54013 |
| CG5250 | DRSC39851 | -0.0415 | 53738 | 57648 |
| CG31445 | DRSC14443 | -0.159 | 41801 | 46023 |
| CG31445 | DRSC28642 | -0.485 | 66771 | 40828 |
| Pvr (PDGF- and VEGF-receptor related) | DRSC03080 | -0.472 | 49224 | 49898 |
| Pvr (PDGF- and VEGF-receptor related) | DRSC36840 | -1.37 | 29907 | 31502 |
| Pvr (PDGF- and VEGF-receptor related) | DRSC36841 | -1.17 | 34176 | 32856 |
| boss (bride of sevenless) | DRSC16916 | -0.0361 | 37982 | 59651 |
| boss (bride of sevenless) | DRSC25941 | -0.06 | 52394 | 54459 |
| Tsp29Fa (Tetraspanin 29Fa) | DRSC03232 | 0.69 | 55093 | 45114 |
| Tsp29Fa (Tetraspanin 29Fa) | DRSC28522 | 0.408 | 68109 | 67238 |
| twz (tiwaz) | DRSC04069 | 0.95 | 64165 | 45622 |
| twz (tiwaz) | DRSC25832 | -0.0699 | 53276 | 54680 |
| T48 (Transcript 48) | DRSC16878 | 0.336 | 70767 | 72500 |
| CG3156 | DRSC27939 | 0.0563 | 67835 | 42971 |
| CG3156 | DRSC39874 | -0.0274 | 58420 | 65211 |
| rdgB (retinal degeneration B) | DRSC20365 | 0.238 | 52255 | 35633 |
| rdgB (retinal degeneration B) | DRSC27840 | 0.183 | 62347 | 59380 |
| CG11147 | DRSC02129 | -0.136 | 50841 | 35787 |
| CG7227 | DRSC03032 | 0.714 | 62604 | 70219 |
| CG7227 | DRSC39466 | -0.0187 | 51869 | 47309 |
| Adgf-A2 (Adenosine deaminase-related growth factor A2) | DRSC09507 | -0.433 | 59140 | 58591 |
| Adgf-A2 (Adenosine deaminase-related growth factor A2) | DRSC39442 | 0.265 | 57614 | 51715 |
| Spase25 (Spase 25-subunit) | DRSC19776 | -0.277 | 42954 | 41908 |
| Spase25 (Spase 25-subunit) | DRSC39745 | -0.24 | 61112 | 61747 |
| fbl (fumble) | DRSC11886 | -0.273 | 67783 | 60649 |
| fbl (fumble) | DRSC27922 | 0.295 | 58369 | 78623 |
| CG9467 | DRSC16498 | -0.141 | 43232 | 45560 |
| CG42329 | DRSC00682 | -0.112 | 45985 | 44582 |
| CG30043 | DRSC06285 | -0.482 | 60967 | 64439 |
| CG30043 | DRSC39455 | 0.228 | 48217 | 56325 |
| Dg (Dystroglycan) | DRSC06718 | -0.147 | 63839 | 68795 |
| Gr59f (Gustatory receptor 59f) | DRSC04499 | -0.0597 | 49553 | 39130 |
| Gr59f (Gustatory receptor 59f) | DRSC27044 | -0.561 | 41325 | 55385 |
| CG8654 | DRSC07231 | -0.165 | 28530 | 30747 |
| Pex13 (Peroxin 13) | DRSC06877 | -0.505 | 25793 | 29805 |
| syd (sunday driver) | DRSC10963 | -0.0958 | 28605 | 29448 |
| syd (sunday driver) | DRSC24418 | -0.407 | 50395 | 51166 |
| Or94a (Odorant receptor 94a) | DRSC16772 | -0.0772 | 38736 | 58077 |
| GAA1 (Glycosylphosphatidylinositol anchor attachment 1) | DRSC18267 | -0.746 | 36902 | 37210 |
| GAA1 (Glycosylphosphatidylinositol anchor attachment 1) | DRSC39778 | -0.142 | 53381 | 55110 |
| ppk8 (pickpocket 8) | DRSC17269 | -0.233 | 70527 | 57815 |
| ppk8 (pickpocket 8) | DRSC39772 | 0.572 | 62175 | 66531 |
| CG31183 | DRSC14403 | 0.493 | 45920 | 67303 |
| CG31183 | DRSC15554 | -0.471 | 39593 | 40348 |

Hits, among the entries above:
| predicted target | dsRNA | mean Z score | ATP luminescence, replicate 1 | ATP luminescence, replicate 2 |
| --- | --- | --- | --- | --- |
| Tsp47F (Tetraspanin 47F) | DRSC07325 | 7.72 (active) | 2.12e5 | 2.18e5 |
| Vha16-1 (Vacuolar H[+] ATPase 16kD subunit 1) | DRSC05020 | 1.7 (active) | 1.08e5 | 1.05e5 |
| Ctl2 (Choline transporter-like 2) | DRSC29712 | 2.11 (active) | 70956 | 1.17e5 |
